Our source for the binding values is PMC9052155.

Protein sequences, listed by entry. Tags and fused reporters are not part of them.
UniProt Q9Y4K3: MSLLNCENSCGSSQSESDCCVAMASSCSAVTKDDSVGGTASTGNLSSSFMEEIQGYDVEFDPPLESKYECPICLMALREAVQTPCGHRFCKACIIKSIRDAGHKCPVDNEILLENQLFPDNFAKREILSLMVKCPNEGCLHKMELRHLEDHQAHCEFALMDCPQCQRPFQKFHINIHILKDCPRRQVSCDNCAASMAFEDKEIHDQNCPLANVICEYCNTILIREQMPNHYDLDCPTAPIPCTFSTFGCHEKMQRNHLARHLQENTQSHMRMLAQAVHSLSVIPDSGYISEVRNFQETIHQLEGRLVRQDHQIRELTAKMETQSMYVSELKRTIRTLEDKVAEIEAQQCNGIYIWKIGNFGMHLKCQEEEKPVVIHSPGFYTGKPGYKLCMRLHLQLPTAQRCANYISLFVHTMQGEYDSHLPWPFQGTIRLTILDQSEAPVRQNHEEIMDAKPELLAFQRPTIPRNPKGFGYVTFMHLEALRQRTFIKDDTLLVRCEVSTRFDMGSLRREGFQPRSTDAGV

In this experiment the target is HA-tagged β-arr2ΔART (ART motif-deleted β-arrestin2) (rat) (UniProt P29067). Put plainly: co-IP; HA-tagged β-arr2 constructs precipitated with anti-HA agarose from HEK-293 lysates (50 mM HEPES pH 7.5, 2 mM EDTA, 250 mM NaCl, 10% glycerol, 0.5% NP-40; 4 °C overnight); partners detected by immunoblot; cells unstimulated or stimulated with isoproterenol (Figures 1C, 1F, 5C).

Results are given in words; binding and its absence hold for the method and conditions named. In cells and extracts the contact can be indirect. Binding can be weak; no strength is given.

Take “tumor necrosis factor receptor–associated factor 6 (endogenous) (from UniProt Q9Y4K3 1-522) (enzyme)”: the binding entry was “binds”. With “ubiquitin-specific peptidase 20 (endogenous) (from UniProt Q9Y2K6 1-914) (enzyme)”, the binding entry is reported as “binds”.
